Some of the results follow. These are further read-outs of the screen, such as a control signal, another cell line or another target. No call is given for them. Compounds called inactive in the main read-out are mostly missing here. The note in brackets gives the kind of curve behind each potency; many fits are weak.
Experiment: qHTS Assay for Modulators of Lamin A Splicing
Details: HeLa LMNA splicing GFP/RFP minigene ratio, 48 h
Method in brief: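 Read-out is the ratio of GFP to DsRed2 object intensity, acquired by 488 nm laser-scanning cytometry on HeLa lamin A-EGFP minigene reporter cells. Compound incubation 48 hrs at 37 °C in Opti-MEM with 2% FBS; DMSO 0.5% final.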

[1] = measured here: GFP splicing reporter channel
[2] = measured here: RFP viability control channel

Structure (SMILES) | AC50 [1] | AC50 [2]
COC(=O)c1c(-c2ccc(F)cc2)csc1NC(=O)c1ccco1 | 12.6 µM [rising, partial curve] | 22.4 µM [rising, single point]
CC(NC(=O)COC(=O)c1cc(NS(=O)(=O)c2ccc(Cl)c([N+](=O)[O-])c2)ccc1O)C1CC2CCC1C2 (stereo not given) | 11.2 µM [falling, partial curve] | 11.2 µM [falling, partial curve, poor fit]
Cc1ccc(Oc2ncnc(N)c2[N+](=O)[O-])cc1 | 11.2 µM [falling, partial curve, poor fit] | –
O=C(COC(=O)[C@@H]1CC(O)CN1S(=O)(=O)c1ccc2c(c1)OCCO2)Nc1ccccc1F (stereo not given in full) | – | 0.0282 µM [falling, full curve, poor fit]
Cc1ccc(CC(=O)Nc2ccccc2-c2ccccc2)cc1C | 35.5 µM [rising, single point] | 35.5 µM [rising, single point]
CCN(CC)S(=O)(=O)c1ccc2oc(C(=O)NC3CCCc4ccccc43)c(C)c2c1 (stereo not given) | 6.31 µM [rising, partial curve] | 10 µM [rising, partial curve]
O=[n+]1cc(-c2ccc(Cl)cc2)n([O-])c2c1CCCCC2 | 11.2 µM [rising, partial curve, poor fit] | 11.2 µM [rising, partial curve, poor fit]
COc1ccc(-c2nc(SCC(=O)Nc3cccc(C(C)=O)c3)n[nH]2)cc1 | – | 0.891 µM [rising, full curve, poor fit]
COc1cccc(CN2CCN(C(=O)c3ccc(-c4ccccc4)cc3)CC2)c1 | 10 µM [falling, partial curve, poor fit] | 0.00447 µM [falling, full curve, poor fit]
CCN(CC)C(=O)Cn1c(=O)n(-c2ccccc2)c(=O)n1CC(=O)N(CC)CC | – | 5.62 µM [rising, single point]
CCOC(=O)C1(Cc2cccc(OC)c2)CCCN(Cc2nccn2CC)C1 (stereo not given) | – | 35.5 µM [falling, single point]
Fc1ccc(-c2noc3ncnc(N4CCCCC4)c23)cc1 | 31.6 µM [rising, single point] | –
COC(=O)Cn1c(CCS(=O)(=O)c2ccc(C)c(C)c2)nc2ccccc21 | – | 22.4 µM [rising, partial curve, poor fit]
COc1ccc(S(=O)(=O)NCCc2cn3ccsc3n2)cc1 | 3.98 µM [falling, partial curve, poor fit] | –

Reference: PubChem BioAssay AID1487 (National Center for Advancing Translational Sciences (NCATS), 2009)
